PubChem BioAssay AID248 (DTP/NCI, 2004)
The list does not hold the whole screen: it gathers tests that were run many times, whatever their T/C, doses with no T/C, and many T/C values between a quarter and a half above the control. Further doses and runs are listed elsewhere. T/C gives the treated animals as a percentage of the vehicle group. Some doses have a count of surviving animals in place of a T/C: the source files T/C as zero there, which appears to mark a toxic dose or a test without result, not a measured value. Some doses without a T/C left all or most animals alive at the check, yet need not have been tolerated: survival well below the control is almost never listed, so the zero probably covers shortened survival too. Counts of survivors are from the toxicity check (mostly the fifth day) where no day follows; animals may have died later. Schedules are NCI's codes, taken here to give the interval after Q, in days (D) or hours (H), and the number of doses after X. Some molecules as drawn cover several salts, stereoisomers or complexes of the source; a dose is that of the sample tested. Some entries hold several experiments; the values are given in rising order. Brackets with × say how often a value occurs here. For survival time, the PubChem record calls one and a half times the control and up active, and a quarter to a half above the control has no call in these data; cut-offs in other NCI protocols can differ. Some T/C values carry the count of animals alive at the toxicity check (mostly the fifth day); without a count, all were alive then.

Tested on: L1210 leukemia ip in BDF1 mice, survival T/C
Experiment: NCI In Vivo Anticancer Drug Screen. Data for tumor model L1210 Leukemia (intraperitoneal) in B6D2F1 (BDF1) mice
Conditions: T/C endpoint: median survival time, higher T/C = longer survival

N=c1ccn2c(n1)OC1C(O)C(CO)OC12 (configuration not stated)
T/C (dose: 150.0 mg/kg/injection, schedule: Q01DX009 (ip), vehicle: water, evaluated on day 54): 216 % of control | T/C (dose: 150.0 mg/kg/injection, schedule: Q01DX009 (ip), vehicle: water, evaluated on day 60): 200 and 244 % of control | T/C (dose: 180.0 mg/kg/injection, schedule: Q01DX009 (ip), vehicle: water, evaluated on day 5): 203 and 217 % of control | T/C (dose: 180.0 mg/kg/injection, schedule: Q01DX009 (ip), vehicle: water, evaluated on day 7): 208 and 218 % of control | T/C (dose: 180.0 mg/kg/injection, schedule: Q01DX009 (ip), vehicle: water, evaluated on day 27): 238 % of control [7 of 8 alive] | T/C (dose: 180.0 mg/kg/injection, schedule: Q01DX009 (ip), vehicle: water, evaluated on day 30): 225 % of control [7 of 8 alive] | T/C (dose: 180.0 mg/kg/injection, schedule: Q01DX009 (ip), vehicle: water, evaluated on day 31): 218 % of control | T/C (dose: 180.0 mg/kg/injection, schedule: Q01DX009 (ip), vehicle: water, evaluated on day 33): 283 % of control | T/C (dose: 180.0 mg/kg/injection, schedule: Q01DX009 (ip), vehicle: water, evaluated on day 60): 200, 208, 215 % of control | survivor count (dose: 200.0 mg/kg/injection, schedule: Q01DX001 (ip), vehicle: water): 5 of 8 | T/C (dose: 200.0 mg/kg/injection, schedule: Q01DX009 (ip), vehicle: water, evaluated on day 5): 303 % of control | T/C (dose: 200.0 mg/kg/injection, schedule: Q01DX009 (ip), vehicle: water, evaluated on day 30): 250 % of control | T/C (dose: 200.0 mg/kg/injection, schedule: Q01DX009 (ip), vehicle: water, evaluated on day 35): 235 % of control | T/C (dose: 200.0 mg/kg/injection, schedule: Q01DX009 (ip), vehicle: water, evaluated on day 45): 215 % of control | T/C (dose: 200.0 mg/kg/injection, schedule: Q01DX009 (ip), vehicle: water, evaluated on day 60): 231, 236, 272 [7 of 8 alive], 303 % of control | T/C (dose: 200.0 mg/kg/injection, schedule: Q03HX024 (ip), vehicle: saline): 133 % of control | T/C (dose: 200.0 mg/kg/injection, schedule: Q04DX003 (oral), vehicle: saline): 144 % of control | T/C (dose: 200.0 mg/kg/injection, schedule: Q04DX003 (oral), vehicle: water): 138 % of control | T/C (dose: 300.0 mg/kg/injection, schedule: Q01DX009 (ip), vehicle: water, evaluated on day 5): 232, 265, 294 % of control | T/C (dose: 300.0 mg/kg/injection, schedule: Q01DX009 (ip), vehicle: water, evaluated on day 7): 201 and 222 % of control | T/C (dose: 300.0 mg/kg/injection, schedule: Q01DX009 (ip), vehicle: water, evaluated on day 27): 238 % of control | T/C (dose: 300.0 mg/kg/injection, schedule: Q01DX009 (ip), vehicle: water, evaluated on day 30): 232 and 245 % of control | T/C (dose: 300.0 mg/kg/injection, schedule: Q01DX009 (ip), vehicle: water, evaluated on day 31): 222 % of control | T/C (dose: 300.0 mg/kg/injection, schedule: Q01DX009 (ip), vehicle: water, evaluated on day 33): 144 % of control | T/C (dose: 300.0 mg/kg/injection, schedule: Q01DX009 (ip), vehicle: water, evaluated on day 54): 288 % of control | T/C (dose: 300.0 mg/kg/injection, schedule: Q01DX009 (ip), vehicle: water, evaluated on day 60): 201, 254, 260, 300 [7 of 8 alive], 305 % of control | T/C (dose: 400.0 mg/kg/injection, schedule: Q01DX001 (ip), vehicle: saline): 133 % of control | T/C (dose: 400.0 mg/kg/injection, schedule: Q01DX001 (ip), vehicle: water): 127 % of control [6 of 8 alive] | T/C (dose: 400.0 mg/kg/injection, schedule: Q01DX009 (ip), vehicle: water, evaluated on day 5): 151 % of control | T/C (dose: 400.0 mg/kg/injection, schedule: Q01DX009 (ip), vehicle: water, evaluated on day 30): 333 % of control | T/C (dose: 400.0 mg/kg/injection, schedule: Q01DX009 (ip), vehicle: water, evaluated on day 35): 200 % of control | T/C (dose: 400.0 mg/kg/injection, schedule: Q01DX009 (ip), vehicle: water, evaluated on day 45): 330 % of control [7 of 8 alive] | T/C (dose: 400.0 mg/kg/injection, schedule: Q01DX009 (ip), vehicle: water, evaluated on day 60): 94, 151, 268, 372 % of control | survivor count (dose: 400.0 mg/kg/injection, schedule: Q03HX008 (oral), vehicle: water): 3 of 8 | T/C (dose: 400.0 mg/kg/injection, schedule: Q03HX016 (ip), vehicle: saline): 133 % of control [6 of 8 alive] | survivor count (dose: 400.0 mg/kg/injection, schedule: Q03HX024 (ip), vehicle: water): 7 of 8 | survivor count (dose: 400.0 mg/kg/injection, schedule: Q03HX024 (oral), vehicle: water): 6 of 8 | T/C (dose: 400.0 mg/kg/injection, schedule: Q04DX003 (oral), vehicle: saline): 144 % of control | T/C (dose: 500.0 mg/kg/injection, schedule: Q01DX009 (ip), vehicle: water, evaluated on day 5): 105 and 535 % of control | T/C (dose: 500.0 mg/kg/injection, schedule: Q01DX009 (ip), vehicle: water, evaluated on day 7): 144 and 180 % of control | T/C (dose: 500.0 mg/kg/injection, schedule: Q01DX009 (ip), vehicle: water, evaluated on day 27): 138 % of control | T/C (dose: 500.0 mg/kg/injection, schedule: Q01DX009 (ip), vehicle: water, evaluated on day 30): 100 % of control | T/C (dose: 500.0 mg/kg/injection, schedule: Q01DX009 (ip), vehicle: water, evaluated on day 31): 144 % of control [7 of 8 alive] | T/C (dose: 500.0 mg/kg/injection, schedule: Q01DX009 (ip), vehicle: water, evaluated on day 60): 105, 180 [7 of 8 alive], 545 % of control | survivor count (dose: 500.0 mg/kg/injection, schedule: Q01DX009 (ip), vehicle: water): 4 of 8 | T/C (dose: 600.0 mg/kg/injection, schedule: Q01DX009 (ip), vehicle: water, evaluated on day 5): 107 and 110 % of control | T/C (dose: 600.0 mg/kg/injection, schedule: Q01DX009 (ip), vehicle: water, evaluated on day 30): 107 % of control [7 of 8 alive] | T/C (dose: 600.0 mg/kg/injection, schedule: Q01DX009 (ip), vehicle: water, evaluated on day 54): 133 % of control | T/C (dose: 600.0 mg/kg/injection, schedule: Q01DX009 (ip), vehicle: water, evaluated on day 60): 100, 110, 666 % of control | survivor count (dose: 600.0 mg/kg/injection, schedule: Q01DX009 (ip), vehicle: water): 7 of 8 | T/C (dose: 800.0 mg/kg/injection, schedule: Q01DX001 (ip), vehicle: saline): 138 % of control | T/C (dose: 800.0 mg/kg/injection, schedule: Q01DX001 (ip), vehicle: water): 133 % of control [6 of 8 alive] | T/C (dose: 800.0 mg/kg/injection, schedule: Q01DX001 (oral), vehicle: water, evaluated on day 30): 133 % of control [7 of 8 alive] | T/C (dose: 800.0 mg/kg/injection, schedule: Q01DX001 (oral), vehicle: water, evaluated on day 61): 125 % of control | survivor count (dose: 800.0 mg/kg/injection, schedule: Q01DX009 (ip), vehicle: saline): 7 of 7 | T/C (dose: 800.0 mg/kg/injection, schedule: Q01DX009 (ip), vehicle: water, evaluated on day 5): 102 % of control | T/C (dose: 800.0 mg/kg/injection, schedule: Q01DX009 (ip), vehicle: water, evaluated on day 60): 102 % of control | survivor count (dose: 800.0 mg/kg/injection, schedule: Q01DX009 (ip), vehicle: water): 5 of 8 and 8 of 8 (2×) | survivor count (dose: 800.0 mg/kg/injection, schedule: Q01DX009 (sc), vehicle: water): 7 of 8 | survivor count (dose: 800.0 mg/kg/injection, schedule: Q04DX003 (ip), vehicle: saline): 5 of 8 | T/C (dose: 1200.0 mg/kg/injection, schedule: Q01DX001 (oral), vehicle: water): 125 % of control [7 of 8 alive] | survivor count (dose: 1600.0 mg/kg/injection, schedule: Q01DX001 (ip), vehicle: water): 2 of 8 | T/C (dose: 1600.0 mg/kg/injection, schedule: Q01DX001 (oral), vehicle: water): 130 % of control | survivor count (dose: 1600.0 mg/kg/injection, schedule: Q01DX009 (oral), vehicle: water): 6 of 8 | survivor count (dose: 1600.0 mg/kg/injection, schedule: Q04DX003 (ip), vehicle: saline): 5 of 8 | survivor count (dose: 3200.0 mg/kg/injection, schedule: Q01DX001 (ip), vehicle: water): 4 of 8 | survivor count (dose: 3200.0 mg/kg/injection, schedule: Q04DX003 (oral), vehicle: water): 4 of 8
